In publication PMC12719032, “Structural and biophysical insights into RomR, MglB, and MglC interactions involved in regulating cell polarity in Myxococcus xanthus” (The Journal of Biological Chemistry, 2025):
These are yes or no findings as the source states them, for the method shown.

Sequences of proteins named here, by UniProt entry; tags and fusion partners are left off. A change or cut given only in a name is not applied to a line headed by its entry.
UniProt Q1D3Z1: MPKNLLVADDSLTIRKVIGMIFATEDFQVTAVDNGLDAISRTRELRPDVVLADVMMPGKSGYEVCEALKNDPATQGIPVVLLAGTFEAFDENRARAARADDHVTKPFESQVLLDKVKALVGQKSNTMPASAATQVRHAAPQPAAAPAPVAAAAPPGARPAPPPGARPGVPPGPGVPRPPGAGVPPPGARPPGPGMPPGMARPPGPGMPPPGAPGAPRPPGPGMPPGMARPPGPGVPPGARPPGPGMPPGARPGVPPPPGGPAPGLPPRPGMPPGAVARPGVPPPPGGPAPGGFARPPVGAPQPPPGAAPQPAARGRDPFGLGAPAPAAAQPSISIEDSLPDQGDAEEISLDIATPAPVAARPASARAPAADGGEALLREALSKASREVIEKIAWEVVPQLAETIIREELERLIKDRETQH

Target: RomR^371-420 (C-terminal helix of RomR, residues 371-420) (M. xanthus) (UniProt Q1D3Z1)
Test: condition: 50 μM of RomR^371-420 was titrated with 500 μM of MglB; ITC; 50 μM RomR^371-420 in the cell titrated with 500 μM MglB; 30 injections; both purified

B1: MglB (mutual gliding-motility protein B) (protein, UniProt Q1DB03 1-159)
chain: MGTQLVMYEEEFTKINAVCDRLTKDANAKVVFLVDKNGQLISSAGQTQNIDTTSLASLTAGNVAAMGGLAKLIGENEFPNQFHEGAKDSLYMTIVGSRVVLVVIFDNRTSLGLVRLRIKKASDELTKIFESLVKKTDSPGAGSPFAEISDDDIDNLFSE
binding: no binding
